Measurements reported in PubChem BioAssay AID1259405 (NCATS, 2018)
In all, the deposit lists about 50,000 reagents; shown is a random part of them. Over the whole deposit, about 4,000 (8%) were called active. 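Mouse siRNA library applied to hamster cells; one well for each siRNA.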 Entries without a mark were called inactive. Reagents against one gene are numbered here.

- Purpose: 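Knock-downs that lift recombinant protein yield in hamster ovary cells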 (primary screen)
- Cells: Chinese hamster CHO-K1 ovary cells with stable secreted eGFP expression
- Reagents: single siRNA against mouse genes, 0.8 pmol siRNA per well (2 µl of 400 nM stock)
- Time to read-out: 3 days
- Measurement: 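Per-well intracellular GFP measured by laser scanning cytometry, plus viability from ATP luminescence, each relative to plate median of non-targeting control wells, in %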
- Scale: GFP, % of control: higher = more GFP per well, higher productivity; viability (ATP), % of control: higher = more viable cells (more ATP)
- Call rule: 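Called active when intracellular GFP, relative to negative control, is at or above 120%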

Gene | reagent no. | GFP, % of control | viability (ATP), % of control
Nell1 (NEL-like 1) | 1 | 93.1 | 71.2
Nell1 (NEL-like 1) | 2 | 88.8 | 92.2
Nell1 (NEL-like 1) | 3 | 58.5 | 65.8
C1galt1 | 1 | 117 | 120
C1galt1 | 2 | 60.3 | 118
C1galt1 | 3 | 74.2 | 84.2
Rps15a (ribosomal protein S15A) | 1 | 81.2 | 80
Rps15a (ribosomal protein S15A) | 2 | 94 | 84.2
Rps15a (ribosomal protein S15A) | 3 | 95.1 | 93.7
Vezt (vezatin, adherens junctions transmembrane protein) | 1 | 70.4 | 79.3
Vezt (vezatin, adherens junctions transmembrane protein) | 2 | 74.4 | 83
Vezt (vezatin, adherens junctions transmembrane protein) | 3 | 47.4 | 53.4
Ankrd13b (ankyrin repeat domain 13b) | 1 | 72.2 | 72.2
Ankrd13b (ankyrin repeat domain 13b) | 2 | 97.2 | 96.7
Ankrd13b (ankyrin repeat domain 13b) | 3 | 53.1 | 49.5
Anxa3 (annexin A3) | 1 | 132 (active) | 122
Anxa3 (annexin A3) | 2 | 74.8 | 120
Anxa3 (annexin A3) | 3 | 44.3 | 72.2
Plg (plasminogen) | 1 | 41 | 101
Plg (plasminogen) | 2 | 93.6 | 65.1
Trim60 (tripartite motif-containing 60) | 1 | 83.3 | 52.6
Trim60 (tripartite motif-containing 60) | 2 | 115 | 105
Trim60 (tripartite motif-containing 60) | 3 | 86.9 | 99.7
Pkd2l2 (polycystic kidney disease 2-like 2) | 1 | 165 (active) | 86.7
Pkd2l2 (polycystic kidney disease 2-like 2) | 2 | 79.5 | 84.3
Pkd2l2 (polycystic kidney disease 2-like 2) | 3 | 84 | 81
Setd4 (SET domain containing 4) | 1 | 57.4 | 59.6
Setd4 (SET domain containing 4) | 2 | 163 (active) | 96.3
Setd4 (SET domain containing 4) | 3 | 65.5 | 83.1
Calu (calumenin) | 1 | 82.5 | 97.1
Calu (calumenin) | 2 | 63.8 | 78.9
Rgs20 (regulator of G-protein signaling 20) | 1 | 66.2 | 40.2
Rgs20 (regulator of G-protein signaling 20) | 2 | 71.4 | 71.9
Rgs20 (regulator of G-protein signaling 20) | 3 | 42.8 | 56.8
Smc6 (structural maintenance of chromosomes 6) | 1 | 35.8 | 34.7
Smc6 (structural maintenance of chromosomes 6) | 2 | 80.2 | 87.2
Smc6 (structural maintenance of chromosomes 6) | 3 | 48.5 | 59
Ighmbp2 (immunoglobulin mu DNA binding protein 2) | 1 | 150 (active) | 106
Ighmbp2 (immunoglobulin mu DNA binding protein 2) | 2 | 97.8 | 113
Ighmbp2 (immunoglobulin mu DNA binding protein 2) | 3 | 37.9 | 34.7
Sofu1 (sperm-oocyte fusion factor 1) | 1 | 37.8 | 71.7
Sofu1 (sperm-oocyte fusion factor 1) | 2 | 43.4 | 50.9
Sofu1 (sperm-oocyte fusion factor 1) | 3 | 73.5 | 85.2
Fam234b (family with sequence similarity 234, member B) | 1 | 50 | 54.1
Fam234b (family with sequence similarity 234, member B) | 2 | 76.2 | 77.6
Fam234b (family with sequence similarity 234, member B) | 3 | 90.8 | 75.3
Sybu (syntabulin (syntaxin-interacting)) | 1 | 99.5 | 97.4
Sybu (syntabulin (syntaxin-interacting)) | 2 | 78.1 | 81.7
Sybu (syntabulin (syntaxin-interacting)) | 3 | 93.5 | 99.9
Svs3b (seminal vesicle secretory protein 3B) | 1 | 158 (active) | 74.2
Svs3b (seminal vesicle secretory protein 3B) | 2 | 150 (active) | 88.4
Svs3b (seminal vesicle secretory protein 3B) | 3 | 123 (active) | 110
Cyp20a1 (cytochrome P450, family 20, subfamily a, polypeptide 1) | 1 | 62.8 | 39.8
Cyp20a1 (cytochrome P450, family 20, subfamily a, polypeptide 1) | 2 | 81.3 | 109
Cyp20a1 (cytochrome P450, family 20, subfamily a, polypeptide 1) | 3 | 61.2 | 77.8
Mybbp1a (MYB binding protein (P160) 1a) | 1 | 45.4 | 67.9
Mybbp1a (MYB binding protein (P160) 1a) | 2 | 9.63 | 10
Mybbp1a (MYB binding protein (P160) 1a) | 3 | 130 (active) | 80

A few values from above.
Entry for Svs3b (seminal vesicle secretory protein 3B) #1 under “GFP, % of control”: 158 (active)
Vezt (vezatin, adherens junctions transmembrane protein) #2, GFP, % of control: 74.4
Under “GFP, % of control”, Cyp20a1 (cytochrome P450, family 20, subfamily a, polypeptide 1) #1 shows 62.8
Result for C1galt1 #2 in “GFP, % of control”: 60.3
Fam234b (family with sequence similarity 234, member B) #1, viability (ATP), % of control: 54.1
Under “viability (ATP), % of control”, Ighmbp2 (immunoglobulin mu DNA binding protein 2) #3 reads 34.7
